# Test results reported in PubChem BioAssay AID743477 (Broad Institute, 2014).
# All entries are inconclusive by the source's own rule. Clear calls are listed elsewhere.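 Rule for the calls: active = fitted curve drops to -35% activity change at a dose no higher than twice the top valid tested dose; inconclusive = no clear call, values can overlap the other calls; inactive = the rest, including effects opposite to the expected drop.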
# Test: TC71 Ewing sarcoma cell viability loss – luminescence, retest at dose, dry powder, confirmation (AID 743477)
# Conditions: CellTiter-Glo ATP, 72 h; at 26 µM (top of the series)
smiles,measurement,value
COc1cc(Nc2ncc3c(n2)-c2ccc(Cl)cc2C(c2c(F)cccc2OC)=NC3)ccc1C(=O)O,"activity change, negative = cytotoxicity",inconclusive: -47.1%
